Article PMC12483961

Legend:
Experiment in all cases: EMSA
[1] = test system: GST-PpLBD16 (Prunus persica); details: LightShift Chemiluminescent EMSA kit (buffer, salt and pH not stated), 30 min at room temperature in the dark, 6% polyacrylamide gel, recombinant protein, protein details: N-terminal GST (pGEX-4T-1), label: 3' biotin
[2] = test system: HIS-PpSnRK1α (Prunus persica); details: LightShift Chemiluminescent EMSA kit (buffer, salt and pH not stated), 30 min at room temperature in the dark, 6% polyacrylamide gel; recombinant protein; protein details: HIS (pET-32a); label: 3' biotin
GST = GST (UniProt P08515); details: LightShift Chemiluminescent EMSA kit (buffer, salt and pH not stated), 30 min at room temperature in the dark, 6% polyacrylamide gel; recombinant protein; protein details: GST; label: 3' biotin
[3] = with HIS-PpSnRK1α (binding enhanced)

Which results are given for “AGAGTTTCCCAATTTTACACTAATTTGTTGTTTTTATTTTTTATTTTCTACA (double strand) [proPpCNGC1 probe]”?
binding result [1]: binds; binding result [1, 3]: binds; binding result [2]: no binding

What does the source list for “TATAATAATAAAGAAAAGAGGAAAAAAGACTTGTA (double strand) [proPpEXPB2 probe]”?
binding result [1]: binds; binding result [1, 3]: binds; binding result [2]: no binding; binding result (GST): no binding

Construct, isoform or probe ends are uncertain for at least one entry. For some of these results: Negatives hold for the conditions tested.
